Experimental data reported in article PMC8940927.
These are yes or no findings as the source states them, for the method shown. In cells and extracts the contact can be indirect. Some results given as binding are weak or reduced against the parent protein; the word gives no strength.

The chains behind the UniProt entries cited, without tags or fusion partners.
UniProt P31596: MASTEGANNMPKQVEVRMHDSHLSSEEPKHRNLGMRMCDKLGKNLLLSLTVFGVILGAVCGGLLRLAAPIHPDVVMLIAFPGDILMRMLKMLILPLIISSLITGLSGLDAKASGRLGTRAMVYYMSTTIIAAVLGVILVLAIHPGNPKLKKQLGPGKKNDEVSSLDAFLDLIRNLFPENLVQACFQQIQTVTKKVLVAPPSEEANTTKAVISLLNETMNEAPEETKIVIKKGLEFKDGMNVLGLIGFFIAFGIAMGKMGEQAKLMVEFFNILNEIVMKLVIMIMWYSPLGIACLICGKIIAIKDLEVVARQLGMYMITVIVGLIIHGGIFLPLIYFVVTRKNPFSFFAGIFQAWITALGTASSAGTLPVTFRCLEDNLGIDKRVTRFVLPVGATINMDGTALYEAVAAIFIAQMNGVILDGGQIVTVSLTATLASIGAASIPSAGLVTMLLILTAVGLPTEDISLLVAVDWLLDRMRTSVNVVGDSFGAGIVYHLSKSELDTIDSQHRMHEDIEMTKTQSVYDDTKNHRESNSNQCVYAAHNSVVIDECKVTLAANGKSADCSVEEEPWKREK

Target: GST-PKCα (UniProt P05696)
Assay: pull-down; GST pull-down; bait protein GST-PKCα, prey protein HA-GLT-1; immunoblots of the precipitates

binding: binds
Substance: HA-GLT-1 (from UniProt P31596 1-573)
